Source: paper PMC7498369
No constants are given. Whether binding was seen depends on the method and setting. In cells and extracts the contact can be indirect. Some entries that bind do so weakly or less than the wild type.

Protein sequences, listed by entry. Tags and fused reporters are not part of them.
UniProt P46527: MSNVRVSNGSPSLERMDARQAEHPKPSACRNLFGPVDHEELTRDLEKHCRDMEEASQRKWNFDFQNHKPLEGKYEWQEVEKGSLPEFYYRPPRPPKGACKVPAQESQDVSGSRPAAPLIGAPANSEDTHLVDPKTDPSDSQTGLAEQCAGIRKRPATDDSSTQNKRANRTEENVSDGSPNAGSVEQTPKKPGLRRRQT

B1: mitochondrial amidoxime reducing component 2 (MARC2), exogenous, overexpressed in HCCLM3 cells (enzyme, UniProt Q969Z3 36-335)
chain: GTVAWRRAWPRRRRRLQQVGTVAKLWIYPVKSCKGVPVSEAECTAMGLRSGNLRDRFWLVIKEDGHMVTARQEPRLVLISIIYENNCLIFRAPDMDQLVLPSKQPSSNKLHNCRIFGLDIKGRDCGNEAAKWFTNFLKTEAYRLVQFETNMKGRTSRKLLPTLDQNFQVAYPDYCPLLIMTDASLVDLNTRMEKKMKMENFRPNIVVTGCDAFEEDTWDELLIGSVEVKKVMACPRCILTTVDPDTGVIDRKQPLDTLKSYRLCDPSERELYKLSPLFGIYYSVEKIGSLRVGDPVYRMV
B2: mitochondrial amidoxime reducing component 2 (MARC2), endogenous in Huh7 cells (enzyme, UniProt Q969Z3 36-335)
chain: B1 chain
B3: mitochondrial amidoxime reducing component 2 (MARC2) in the 'indicated cell lysates' of Fig. 6c (enzyme, UniProt Q969Z3 36-335)
chain: B1 chain

How the values were obtained:
[1] = target: T1, RNF123 (human (endogenous in HCCLM3 and Huh7)) (UniProt Q5XPI4); assay: co-IP; cell lysates (IP lysis buffer) immunoprecipitated with anti-RNF123 antibody (sc-101122), Dynabeads protein G IP kit, western blot for MARC2, p27 and RNF123; HCCLM3 overexpressing MARC2, Huh7, shMARC2-Huh7
T1 sequence: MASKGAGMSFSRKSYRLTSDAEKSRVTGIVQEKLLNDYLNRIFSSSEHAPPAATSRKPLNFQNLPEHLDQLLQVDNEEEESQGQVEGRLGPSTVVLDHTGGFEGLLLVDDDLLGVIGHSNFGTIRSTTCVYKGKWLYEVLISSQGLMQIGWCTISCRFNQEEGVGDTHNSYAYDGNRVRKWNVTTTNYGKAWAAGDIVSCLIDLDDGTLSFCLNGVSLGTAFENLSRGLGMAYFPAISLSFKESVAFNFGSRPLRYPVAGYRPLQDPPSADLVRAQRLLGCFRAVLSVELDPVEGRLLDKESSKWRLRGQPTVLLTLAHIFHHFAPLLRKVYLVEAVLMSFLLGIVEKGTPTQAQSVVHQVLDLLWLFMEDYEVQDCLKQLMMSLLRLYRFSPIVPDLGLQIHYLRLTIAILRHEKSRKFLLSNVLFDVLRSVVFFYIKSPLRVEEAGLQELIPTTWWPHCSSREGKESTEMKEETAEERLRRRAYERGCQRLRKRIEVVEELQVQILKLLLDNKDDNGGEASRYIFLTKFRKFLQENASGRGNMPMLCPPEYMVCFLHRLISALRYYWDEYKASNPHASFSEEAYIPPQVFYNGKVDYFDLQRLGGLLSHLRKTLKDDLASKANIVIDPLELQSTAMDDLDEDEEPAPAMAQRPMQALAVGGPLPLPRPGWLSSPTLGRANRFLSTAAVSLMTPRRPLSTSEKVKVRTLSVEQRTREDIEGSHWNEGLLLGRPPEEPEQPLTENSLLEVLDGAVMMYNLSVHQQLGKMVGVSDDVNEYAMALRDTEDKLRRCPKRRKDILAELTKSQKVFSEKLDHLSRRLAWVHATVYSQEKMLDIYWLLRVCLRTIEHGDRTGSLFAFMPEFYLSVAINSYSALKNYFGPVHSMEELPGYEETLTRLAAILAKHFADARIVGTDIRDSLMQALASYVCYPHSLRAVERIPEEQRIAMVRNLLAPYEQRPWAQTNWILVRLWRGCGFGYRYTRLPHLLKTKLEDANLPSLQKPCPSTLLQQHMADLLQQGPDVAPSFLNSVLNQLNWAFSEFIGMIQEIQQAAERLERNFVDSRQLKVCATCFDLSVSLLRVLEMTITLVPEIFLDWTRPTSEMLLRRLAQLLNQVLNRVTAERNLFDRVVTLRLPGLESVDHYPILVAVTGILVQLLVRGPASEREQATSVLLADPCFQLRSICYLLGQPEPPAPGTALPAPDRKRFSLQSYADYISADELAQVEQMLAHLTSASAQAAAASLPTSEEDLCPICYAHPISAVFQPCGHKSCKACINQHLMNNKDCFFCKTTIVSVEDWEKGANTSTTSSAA

[2] = target: p27 (human (endogenous in HCCLM3 and Huh7)) (UniProt P46527); assay: co-IP; indicated cell lysates immunoprecipitated with anti-p27 antibody, Dynabeads protein G IP kit, western blot

Row | Molecule | binding [1] | binding [2]
1 | p27 (from UniProt P46527 1-198) | binds | –
2 | B1 | binds | –
3 | B2 | binds | –
4 | B3 | – | no binding
